# Whole data set: some 1,100 compounds, median “Wnt reporter firefly/Renilla luciferase ratio relative to plate median” near 1.1, cut for the highest 2% near 1.6. The list shows a part of the results, in another mix than the full data.
# System: HEK293T (UBE3A T485A transfected, BAR Wnt reporter)
# Test: Wnt reporter firefly/Renilla luciferase ratio relative to plate median (fold (linear ratio)); higher = more Wnt/beta-catenin reporter activation
# Conditions: 24 h
# In short: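 Wnt activity (firefly/Renilla ratio) and cell health (raw Renilla) were read with Dual-Glo luciferase and median-centred plate by plate. HEK293T cells, at 4500 cells/well in white 384-well plates with DMEM plus 10% FBS at 37°C and 5% CO2, carried a transfected BAR firefly luciferase Wnt reporter, TK-Renilla and an expression plasmid. The chemicals were applied by robot at 0.01–100 uM for 24 h, beginning four hours after transfection, and results were averaged across four biological replicates.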
Structure (SMILES),Wnt reporter firefly/Renilla luciferase ratio (concentration: 0.1 uM),Wnt reporter firefly/Renilla luciferase ratio (concentration: 1 uM),Wnt reporter firefly/Renilla luciferase ratio (concentration: 10 uM),Wnt reporter firefly/Renilla luciferase ratio (concentration: 100 uM),Wnt reporter firefly/Renilla luciferase ratio (concentration: 0.01 uM)
C[C@]12CC[C@@H]3c4ccc(O)cc4CC[C@H]3[C@@H]1CC[C@@H]2O [17beta-Estradiol],0.999,0.932,0.591,,
CCC(C)=NO [2-Butanone oxime],1,0.928,1.1,1.33,
"Cc1ccc(N(C)C)cc1 [N,N,4-Trimethylaniline]",1.08,1.2,1.06,0.933,
Cc1ccc(C(C)C)cc1 [p-Cymene],1.31,1.11,1.1,1.52,
CCC1(O)C(=O)OCc2c1cc1n(c2=O)Cc2cc3c(CN(C)C)c(O)ccc3nc2-1 (stereo unspecified) [Topotecan],0.488,0.629,0.537,0.228,0.888
CCCOC(=O)c1cc(O)c(O)c(O)c1 [Propyl gallate],1.13,1.01,0.936,0.729,
"CCCCCCCCN(C)C [N,N-Dimethyloctylamine]",1.11,1.08,0.836,1.23,
CCCCCCCCCCCCCCCO [1-Pentadecanol],1.05,0.896,1.04,0.942,
O=[N+]([O-])c1ccc([O-])cc1.[Na+] [Sodium 4-nitrophenolate],1.02,0.944,1.34,0.608,
CC(C(C)N1CC(=O)NC(=O)C1)N1CC(=O)NC(=O)C1 (stereo unspecified),1.88,,,,
CCOC(=O)COc1ccc2c(c1)CC(NCC(O)c1cccc(Cl)c1)CC2.Cl (stereo unspecified),1.06,1.18,1.15,1.19,
"Oc1ccc(C(c2ccc(O)cc2)C(Cl)(Cl)Cl)cc1 [2,2-Bis(4-hydroxyphenyl)-1,1,1-trichloroethane]",1.3,0.957,0.541,,1.02
CCOCCOCCOCCO [2-[2-(2-Ethoxyethoxy)ethoxy]ethanol],,,,1.62,
"CC(O)CN(CCN(CC(C)O)CC(C)O)CC(C)O (stereo unspecified) [N,N,N',N'-Tetrakis(2-Hydroxypropyl)ethylenediamine]",1.11,0.855,1.03,1.08,
Nc1nc(=O)c2nc(CNc3ccc(C(=O)N[C@@H](CCC(=O)O)C(=O)O)cc3)cnc2[nH]1 [Folic acid],1.38,1.01,0.97,1.26,
CC(C)(O)c1ccc(CNC(=O)c2cccnc2Oc2ccc3nonc3c2)cc1,1.11,0.899,0.958,0.232,
[Cl-].[K+],0.807,0.821,0.758,1.39,0.834
CCCCCCCC(=O)O [Octanoic acid],0.998,1.11,1.2,1.11,
O=C1CCCCC1 [Cyclohexanone],1.22,1.2,1.33,1.08,
O=C(O)c1cccc(Oc2ccccc2)c1 [3-Phenoxybenzoic acid],1.23,0.897,0.92,0.89,
Cl.O=C(c1ccc(OCCN2CCCCC2)cc1)c1c(-c2ccc(O)cc2)sc2cc(O)ccc12 [Raloxifene hydrochloride],0.859,0.911,0.518,,
O=C(O)C1(C(=O)Nc2ccc(Cl)cc2Cl)CC1 [Cyclanilide],1.6,1.16,1.53,0.874,1.46

# Record cards (already shown).
# [Cl-].[K+] in the list: Wnt reporter firefly/Renilla luciferase ratio (concentration: 0.1 uM): 0.807; Wnt reporter firefly/Renilla luciferase ratio (concentration: 1 uM): 0.821; Wnt reporter firefly/Renilla luciferase ratio (concentration: 10 uM): 0.758; Wnt reporter firefly/Renilla luciferase ratio (concentration: 100 uM): 1.39; Wnt reporter firefly/Renilla luciferase ratio (concentration: 0.01 uM): 0.834
# Cc1ccc(C(C)C)cc1 [p-Cymene] in the list: Wnt reporter firefly/Renilla luciferase ratio (concentration: 0.1 uM): 1.31; Wnt reporter firefly/Renilla luciferase ratio (concentration: 1 uM): 1.11; Wnt reporter firefly/Renilla luciferase ratio (concentration: 10 uM): 1.1; Wnt reporter firefly/Renilla luciferase ratio (concentration: 100 uM): 1.52
# CCCCCCCC(=O)O [Octanoic acid] in the list: Wnt reporter firefly/Renilla luciferase ratio (concentration: 0.1 uM): 0.998; Wnt reporter firefly/Renilla luciferase ratio (concentration: 1 uM): 1.11; Wnt reporter firefly/Renilla luciferase ratio (concentration: 10 uM): 1.2; Wnt reporter firefly/Renilla luciferase ratio (concentration: 100 uM): 1.11
# CCOC(=O)COc1ccc2c(c1)CC(NCC(O)c1cccc(Cl)c1)CC2.Cl (stereo unspecified) in the list: Wnt reporter firefly/Renilla luciferase ratio (concentration: 0.1 uM): 1.06; Wnt reporter firefly/Renilla luciferase ratio (concentration: 1 uM): 1.18; Wnt reporter firefly/Renilla luciferase ratio (concentration: 10 uM): 1.15; Wnt reporter firefly/Renilla luciferase ratio (concentration: 100 uM): 1.19

# Further results follow.

Structure (SMILES),Wnt reporter firefly/Renilla luciferase ratio (concentration: 0.1 uM),Wnt reporter firefly/Renilla luciferase ratio (concentration: 1 uM),Wnt reporter firefly/Renilla luciferase ratio (concentration: 10 uM),Wnt reporter firefly/Renilla luciferase ratio (concentration: 100 uM),Wnt reporter firefly/Renilla luciferase ratio (concentration: 0.01 uM)
"OC(CCl)CCl [1,3-Dichloro-2-propanol]",1.29,1.29,1.36,1.58,
CCCCOCCO [2-Butoxyethanol],1.04,0.988,0.907,1.06,
CC(=O)CC(c1ccccc1)c1c(O)c2ccccc2oc1=O (stereo unspecified) [Warfarin],0.905,1.11,1.07,0.631,
CC(C)C(=O)Nc1ccc([N+](=O)[O-])c(C(F)(F)F)c1 [Flutamide],0.956,0.799,1.13,0.325,
CCc1nc(N)nc(N)c1-c1ccc(Cl)cc1 [Pyrimethamine],1.17,1.01,0.586,0.452,
Cc1[nH]nc2c1N=C(c1ccccc1Cl)c1cc([N+](=O)[O-])ccc1N2,1.21,1.72,104,89.3,
c1ccc2cc3ccccc3cc2c1 [Anthracene],,,,2.12,
O=C1CCC(C2CCCCC2)CC1 [4-Cyclohexylcyclohexanone],1.1,1.01,1,1.33,
COC(=O)c1ccc(I)cc1S(=O)(=O)[N-]C(=O)Nc1nc(C)nc(OC)n1.[Na+] [Iodosulfuron-methyl-sodium],0.881,1.01,1.38,1.15,1.03
CCO[Si](CCCNC(N)=O)(OCC)OCC [1-[3-(Triethoxysilyl)propyl]urea],,,,1.66,
N=C(N)c1ccc(OCCCCCOc2ccc(C(=N)N)cc2)cc1.O=S(=O)(O)CCO.O=S(=O)(O)CCO [Pentamidine isethionate],1.2,0.887,0.127,1.49,
CCOC(=O)CCC(=O)OCC [Diethyl butanedioate],1.07,1.1,1.11,1.29,
Cc1occc(=O)c1O [Maltol],1.14,1.02,1.04,1.22,
O=C([O-])Cc1ccccc1Nc1c(Cl)cccc1Cl.[Na+] [Diclofenac sodium],1.17,0.928,1.12,0.35,
O=C(Oc1ccccc1)c1cccc(C(=O)Oc2ccccc2)c1 [Diphenyl isophthalate],0.923,1.1,1.05,1.54,
CC(C)CCCCCCOC(=O)c1ccc(C(=O)OCCCCCCC(C)C)c(C(=O)OCCCCCCC(C)C)c1 [Triisononyl trimellitate],1.08,0.919,1.18,1.34,
CC(C)CCCCCCCOC(=O)CCCCC(=O)OCCCCCCCC(C)C [Diisodecyl hexanedioate],0.994,1.02,1.21,1.27,
NCCO [Ethanolamine],,,,2.04,
C[C@@H](Oc1ccc(CNC(=O)c2cccnc2Oc2ccc3c(c2)OCO3)c(F)c1)C(=O)O,1.14,1.12,1.13,1.33,
Cc1c(C)c2c(c(C)c1O)CCC(C)(COc1ccc(CC3SC(=O)NC3=O)cc1)O2 (stereo unspecified) [Troglitazone],0.992,0.916,0.805,0.519,
CCCCCCCCCCC [Undecane],1.08,1.09,1.2,1.43,
CC(N)=O [Acetamide],1.12,0.966,1.1,1.54,

Structure (SMILES),Wnt reporter firefly/Renilla luciferase ratio (concentration: 0.1 uM),Wnt reporter firefly/Renilla luciferase ratio (concentration: 1 uM),Wnt reporter firefly/Renilla luciferase ratio (concentration: 10 uM),Wnt reporter firefly/Renilla luciferase ratio (concentration: 100 uM),Wnt reporter firefly/Renilla luciferase ratio (concentration: 0.01 uM)
CC(=O)OCC(COC(C)=O)OC(C)=O [Triacetin],1.37,1.12,0.909,1.39,
"CC1(C)C(=O)NC(=O)N1CO [1-(Hydroxymethyl)-5,5-dimethylhydantoin]",1.14,0.992,1.12,1.59,
C=CCc1ccc(O)c(OC)c1 [Eugenol],1.02,1.13,1.19,1.55,
"CN(C)CCCN(C)CCCN(C)C [2,6,10-Trimethyl-2,6,10-triazaundecane]",0.896,1.18,1.16,1.28,
Oc1ccc2c(c1)-c1ccccc1C2 [3-Hydroxyfluorene],1.16,1.43,1.3,0.367,
CCCCCCCCN(C)CCCCCCCC [N-Methyldioctylamine],1.16,1,0.755,0.896,
CCCCOC(=O)C(C)Oc1ccc(Oc2ccc(C(F)(F)F)cn2)cc1 (stereo unspecified) [Fluazifop-butyl],1.71,1.15,1.54,1.13,1.15
CCCCCCC(C)OC(=O)COc1nc(F)c(Cl)c(N)c1Cl (stereo unspecified) [Fluroxypyr-meptyl],0.966,1.05,1.01,1.2,1.21
CCN(CC)C(=O)c1cc(S(=O)(=O)Cc2ccccc2)c(N2CCC(c3ccccc3)CC2)cc1N(CC)CCN(C)C.O=C(O)C(F)(F)F [HMR1171 trifluoroacetate (1:1)],1.09,0.921,1.06,0.497,
"c1cc(-c2ccncc2)ccn1 [4,4'-Bipyridine]",1.07,1.26,1.19,1.2,
OB(O)O [Boric acid],1.15,1.06,1.24,1.26,1.27
O=C(NS(=O)(=O)/C=C/c1cccs1)c1ccc(F)cc1Br,1.13,1.12,0.456,0.251,
NC(CCCP(=O)(O)O)C(=O)O (racemic),1.19,0.925,0.918,1.69,1.35
C/C=C/C=C/C(=O)O [Sorbic acid],1.17,0.871,0.819,0.845,
CCCCCCCCC(=O)O [Nonanoic acid],1.38,1.02,1.21,1.18,
CC[C@H]1OC(=O)[C@H](C)[C@@H](O[C@H]2C[C@@](C)(OC)[C@@H](O)[C@H](C)O2)[C@H](C)[C@@H](O[C@@H]2O[C@H](C)C[C@H](N(C)C)[C@H]2O)[C@](C)(O)C[C@@H](C)C(=O)[C@H](C)[C@@H](O)[C@]1(C)O [Erythromycin],1.02,0.992,0.807,0.664,
CN1CCCC1=O [N-Methyl-2-pyrrolidone],1.07,0.982,1.13,1.03,
O=C(c1ccccc1)c1ccccc1 [Benzophenone],0.976,0.98,1.01,1.04,
O=C(O)Cn1c(=O)n(Cc2ccc(Br)cc2F)c(=O)c2ccc(Cl)cc21 [Zenarestat],0.915,0.885,1.21,1.43,
C#C[C@]1(O)CC[C@H]2[C@@H]3CCc4cc(O)ccc4[C@H]3CC[C@@]21C [17alpha-Ethinylestradiol],1.06,0.888,1.12,0.42,
CCOCCO [2-Ethoxyethanol],1.04,1.01,1.18,1.25,
